The supplement of paper PMC12823440, “Inhibitors supercharge kinase turnover through native proteolytic circuits” (Nature, 2025)
Where a name gives a salt, the structure may show the parent alone. The list shows a part of the results. Hit calls seldom repeat between salt and free forms of one compound.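 Kinases, fused to nanoluciferase, were expressed in K562 cells; luminescence was measured every 4 h from 2 to 18 h as percent of control (DMSO = 100%, positive control = 0%). A time point is decreased if signal falls significantly (2 sigma). Hits were called by the authors by a rule that is not shown; the count of time points alone does not decide it.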

Protein sequences, listed by entry. Tags and fused reporters are not part of them. Lines headed by an entry give the natural chain unless they say otherwise; changes in a name come on top.
UniProt Q96KB5: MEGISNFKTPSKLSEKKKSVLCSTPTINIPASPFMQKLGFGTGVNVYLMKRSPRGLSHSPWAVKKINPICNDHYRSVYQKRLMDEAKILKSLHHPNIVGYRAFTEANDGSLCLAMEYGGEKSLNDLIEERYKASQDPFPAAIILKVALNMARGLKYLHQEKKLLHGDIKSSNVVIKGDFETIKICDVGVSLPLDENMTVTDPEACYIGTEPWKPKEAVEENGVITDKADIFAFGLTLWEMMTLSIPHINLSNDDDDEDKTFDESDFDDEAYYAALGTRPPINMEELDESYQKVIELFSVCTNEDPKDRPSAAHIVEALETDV
UniProt P09619, whole entry: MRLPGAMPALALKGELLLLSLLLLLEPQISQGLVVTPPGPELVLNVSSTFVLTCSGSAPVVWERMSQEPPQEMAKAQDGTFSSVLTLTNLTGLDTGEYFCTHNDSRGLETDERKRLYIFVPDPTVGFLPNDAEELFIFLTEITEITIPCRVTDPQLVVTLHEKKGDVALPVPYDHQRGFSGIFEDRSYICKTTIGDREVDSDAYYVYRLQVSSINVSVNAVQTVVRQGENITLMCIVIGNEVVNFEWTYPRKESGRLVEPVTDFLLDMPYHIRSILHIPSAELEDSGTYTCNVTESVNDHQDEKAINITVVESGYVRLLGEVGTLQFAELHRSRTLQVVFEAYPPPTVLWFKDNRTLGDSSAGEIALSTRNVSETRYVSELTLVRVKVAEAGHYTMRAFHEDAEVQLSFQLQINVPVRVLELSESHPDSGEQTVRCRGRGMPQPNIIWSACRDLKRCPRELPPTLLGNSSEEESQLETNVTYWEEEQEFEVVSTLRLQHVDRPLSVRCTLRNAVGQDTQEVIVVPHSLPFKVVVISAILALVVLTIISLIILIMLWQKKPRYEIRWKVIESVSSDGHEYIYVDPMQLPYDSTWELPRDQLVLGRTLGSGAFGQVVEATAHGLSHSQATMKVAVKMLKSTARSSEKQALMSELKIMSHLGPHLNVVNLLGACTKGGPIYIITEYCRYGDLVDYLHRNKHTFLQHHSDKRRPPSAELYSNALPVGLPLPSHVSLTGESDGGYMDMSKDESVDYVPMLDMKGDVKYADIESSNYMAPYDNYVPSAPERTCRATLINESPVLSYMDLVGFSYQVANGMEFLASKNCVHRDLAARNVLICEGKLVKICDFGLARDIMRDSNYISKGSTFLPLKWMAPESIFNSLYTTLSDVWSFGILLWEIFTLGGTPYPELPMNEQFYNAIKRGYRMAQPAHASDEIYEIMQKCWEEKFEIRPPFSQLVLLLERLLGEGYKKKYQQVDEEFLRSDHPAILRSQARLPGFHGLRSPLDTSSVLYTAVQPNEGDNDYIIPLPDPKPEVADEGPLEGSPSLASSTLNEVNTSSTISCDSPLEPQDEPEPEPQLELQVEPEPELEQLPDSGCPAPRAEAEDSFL
UniProt Q15118, whole entry, looked up: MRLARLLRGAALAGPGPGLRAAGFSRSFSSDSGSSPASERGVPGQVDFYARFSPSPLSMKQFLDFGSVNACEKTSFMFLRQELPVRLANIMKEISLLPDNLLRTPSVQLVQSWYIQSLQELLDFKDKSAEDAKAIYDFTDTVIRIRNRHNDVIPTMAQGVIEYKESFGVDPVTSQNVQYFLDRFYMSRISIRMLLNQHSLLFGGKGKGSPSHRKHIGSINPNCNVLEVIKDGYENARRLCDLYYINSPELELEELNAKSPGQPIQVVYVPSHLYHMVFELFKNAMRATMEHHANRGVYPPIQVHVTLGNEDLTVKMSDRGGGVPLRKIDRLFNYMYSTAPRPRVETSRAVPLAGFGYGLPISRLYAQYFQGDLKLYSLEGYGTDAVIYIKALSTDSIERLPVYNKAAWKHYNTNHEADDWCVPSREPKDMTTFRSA
UniProt O15530: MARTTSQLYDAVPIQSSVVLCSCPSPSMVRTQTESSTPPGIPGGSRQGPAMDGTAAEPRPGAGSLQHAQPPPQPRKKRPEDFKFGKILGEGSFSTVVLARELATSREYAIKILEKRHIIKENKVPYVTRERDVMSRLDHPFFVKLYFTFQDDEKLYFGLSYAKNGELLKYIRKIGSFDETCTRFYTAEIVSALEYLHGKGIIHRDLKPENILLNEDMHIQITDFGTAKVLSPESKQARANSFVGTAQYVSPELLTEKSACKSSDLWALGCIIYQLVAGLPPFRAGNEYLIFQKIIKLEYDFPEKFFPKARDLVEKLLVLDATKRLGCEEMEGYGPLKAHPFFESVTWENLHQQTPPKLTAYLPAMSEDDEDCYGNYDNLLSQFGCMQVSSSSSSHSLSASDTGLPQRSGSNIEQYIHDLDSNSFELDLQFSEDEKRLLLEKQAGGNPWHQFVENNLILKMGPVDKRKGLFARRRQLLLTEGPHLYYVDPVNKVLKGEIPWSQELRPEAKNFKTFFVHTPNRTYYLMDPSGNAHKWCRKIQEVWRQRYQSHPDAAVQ
UniProt Q9UBF8: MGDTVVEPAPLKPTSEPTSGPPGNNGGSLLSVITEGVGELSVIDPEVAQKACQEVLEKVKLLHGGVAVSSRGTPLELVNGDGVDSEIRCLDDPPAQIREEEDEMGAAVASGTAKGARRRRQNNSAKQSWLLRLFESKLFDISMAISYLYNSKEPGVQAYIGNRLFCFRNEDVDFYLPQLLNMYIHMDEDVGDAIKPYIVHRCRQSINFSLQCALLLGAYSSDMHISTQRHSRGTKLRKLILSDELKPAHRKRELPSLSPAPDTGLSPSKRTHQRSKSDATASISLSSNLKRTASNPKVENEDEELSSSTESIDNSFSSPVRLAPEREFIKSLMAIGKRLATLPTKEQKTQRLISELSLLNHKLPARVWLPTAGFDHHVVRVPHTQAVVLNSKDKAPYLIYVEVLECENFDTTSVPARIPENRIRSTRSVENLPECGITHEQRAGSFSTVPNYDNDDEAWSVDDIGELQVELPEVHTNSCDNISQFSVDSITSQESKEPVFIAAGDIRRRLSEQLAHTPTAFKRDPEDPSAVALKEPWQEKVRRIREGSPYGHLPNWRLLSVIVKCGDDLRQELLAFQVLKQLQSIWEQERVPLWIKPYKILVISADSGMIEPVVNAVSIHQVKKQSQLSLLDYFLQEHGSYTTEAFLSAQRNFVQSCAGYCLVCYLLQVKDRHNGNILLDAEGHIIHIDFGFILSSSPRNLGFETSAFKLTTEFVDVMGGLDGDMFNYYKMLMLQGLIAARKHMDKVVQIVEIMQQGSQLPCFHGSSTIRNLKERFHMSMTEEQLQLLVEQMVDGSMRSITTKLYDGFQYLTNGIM
UniProt P07949, whole entry, looked up: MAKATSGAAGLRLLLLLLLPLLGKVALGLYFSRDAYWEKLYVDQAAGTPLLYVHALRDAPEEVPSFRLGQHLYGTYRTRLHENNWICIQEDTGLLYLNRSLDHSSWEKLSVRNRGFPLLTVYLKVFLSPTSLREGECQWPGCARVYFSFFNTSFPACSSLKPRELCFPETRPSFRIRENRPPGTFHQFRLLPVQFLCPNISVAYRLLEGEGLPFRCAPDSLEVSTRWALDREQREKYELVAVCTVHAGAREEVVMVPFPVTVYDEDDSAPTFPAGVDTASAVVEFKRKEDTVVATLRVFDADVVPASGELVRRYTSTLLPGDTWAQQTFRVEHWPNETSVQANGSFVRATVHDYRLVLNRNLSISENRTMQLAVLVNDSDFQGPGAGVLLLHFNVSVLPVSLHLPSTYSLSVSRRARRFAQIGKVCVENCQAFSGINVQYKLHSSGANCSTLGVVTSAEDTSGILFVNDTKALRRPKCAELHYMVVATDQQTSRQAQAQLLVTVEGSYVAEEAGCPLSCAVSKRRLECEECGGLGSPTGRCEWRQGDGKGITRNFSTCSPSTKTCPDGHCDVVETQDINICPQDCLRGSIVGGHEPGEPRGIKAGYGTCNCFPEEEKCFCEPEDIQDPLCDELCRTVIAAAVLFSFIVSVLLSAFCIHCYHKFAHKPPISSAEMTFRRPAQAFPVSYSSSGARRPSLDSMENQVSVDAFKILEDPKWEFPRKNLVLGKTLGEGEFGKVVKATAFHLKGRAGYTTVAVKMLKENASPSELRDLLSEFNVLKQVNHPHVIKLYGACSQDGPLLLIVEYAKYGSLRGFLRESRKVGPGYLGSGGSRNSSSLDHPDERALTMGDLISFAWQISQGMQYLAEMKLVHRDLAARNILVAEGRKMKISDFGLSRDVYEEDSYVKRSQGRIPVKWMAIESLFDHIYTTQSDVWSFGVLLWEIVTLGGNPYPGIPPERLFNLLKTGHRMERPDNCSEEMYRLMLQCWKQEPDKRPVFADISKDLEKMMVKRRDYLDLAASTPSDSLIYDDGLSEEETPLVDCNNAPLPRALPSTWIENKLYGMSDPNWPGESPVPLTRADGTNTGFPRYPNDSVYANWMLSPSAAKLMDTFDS
UniProt P07949, whole entry M918T, looked up: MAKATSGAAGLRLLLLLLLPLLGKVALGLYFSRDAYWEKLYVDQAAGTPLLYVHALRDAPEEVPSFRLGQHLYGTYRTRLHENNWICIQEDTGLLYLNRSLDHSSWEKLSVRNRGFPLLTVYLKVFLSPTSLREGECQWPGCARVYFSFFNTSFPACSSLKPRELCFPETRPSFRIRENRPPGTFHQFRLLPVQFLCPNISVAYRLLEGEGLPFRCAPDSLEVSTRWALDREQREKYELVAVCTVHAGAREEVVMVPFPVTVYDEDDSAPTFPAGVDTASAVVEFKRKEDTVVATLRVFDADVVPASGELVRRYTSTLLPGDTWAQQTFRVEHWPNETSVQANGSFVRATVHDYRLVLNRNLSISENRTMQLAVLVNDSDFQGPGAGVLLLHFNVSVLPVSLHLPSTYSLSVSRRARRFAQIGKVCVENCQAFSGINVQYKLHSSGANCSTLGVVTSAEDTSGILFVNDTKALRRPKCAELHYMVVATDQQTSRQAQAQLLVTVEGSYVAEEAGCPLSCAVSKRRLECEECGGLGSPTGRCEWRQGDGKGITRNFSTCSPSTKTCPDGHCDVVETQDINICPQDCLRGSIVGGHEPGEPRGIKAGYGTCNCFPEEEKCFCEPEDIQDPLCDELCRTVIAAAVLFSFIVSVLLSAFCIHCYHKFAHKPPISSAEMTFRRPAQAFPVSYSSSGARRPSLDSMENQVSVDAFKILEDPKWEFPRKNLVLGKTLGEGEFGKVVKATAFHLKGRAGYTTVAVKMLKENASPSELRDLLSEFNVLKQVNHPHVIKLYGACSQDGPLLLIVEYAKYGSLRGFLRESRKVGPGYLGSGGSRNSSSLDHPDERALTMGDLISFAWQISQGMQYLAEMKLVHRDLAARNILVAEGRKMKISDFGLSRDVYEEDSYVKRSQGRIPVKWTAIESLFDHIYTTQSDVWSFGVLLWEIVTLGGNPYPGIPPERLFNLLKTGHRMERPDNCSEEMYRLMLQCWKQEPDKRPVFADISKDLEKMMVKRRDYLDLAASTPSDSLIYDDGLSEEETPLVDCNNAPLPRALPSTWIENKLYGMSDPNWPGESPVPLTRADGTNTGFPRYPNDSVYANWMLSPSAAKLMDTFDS
UniProt Q13546: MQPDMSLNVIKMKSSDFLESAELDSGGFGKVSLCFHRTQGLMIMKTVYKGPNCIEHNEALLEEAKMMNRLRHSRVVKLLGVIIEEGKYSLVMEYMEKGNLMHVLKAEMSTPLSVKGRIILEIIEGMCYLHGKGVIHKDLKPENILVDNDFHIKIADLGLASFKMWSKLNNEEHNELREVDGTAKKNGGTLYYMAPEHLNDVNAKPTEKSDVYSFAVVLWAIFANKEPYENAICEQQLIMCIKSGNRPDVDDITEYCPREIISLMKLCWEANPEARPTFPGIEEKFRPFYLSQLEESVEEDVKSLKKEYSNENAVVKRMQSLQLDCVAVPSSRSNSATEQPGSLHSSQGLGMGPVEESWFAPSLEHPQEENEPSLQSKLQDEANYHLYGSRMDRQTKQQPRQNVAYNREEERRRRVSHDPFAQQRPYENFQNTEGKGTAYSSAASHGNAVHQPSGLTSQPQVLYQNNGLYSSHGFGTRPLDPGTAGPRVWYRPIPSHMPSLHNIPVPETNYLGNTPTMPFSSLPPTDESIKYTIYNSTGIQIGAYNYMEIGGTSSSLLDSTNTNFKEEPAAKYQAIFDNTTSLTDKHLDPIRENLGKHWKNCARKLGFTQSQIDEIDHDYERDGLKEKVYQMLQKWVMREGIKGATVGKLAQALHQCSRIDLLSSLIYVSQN

Experiments:
Assay in all cases: number of time points (of 5) at which kinase-Nluc abundance scored as decreased, DMSO-normalised (count); higher = more persistent destabilization
Details in all cases: K562; 2-18 h
NTRK3 = NTRK3 (UniProt Q16288)
PAK4 = PAK4 (UniProt O96013)
PBK = PBK (UniProt Q96KB5)
PDGFRB = PDGFRB (UniProt P09619)
PDK1 = PDK1 (UniProt Q15118)
PDPK1 = PDPK1 (UniProt O15530)
PIK4CA = PIK4CA (UniProt P42356)
PIK4CB = PIK4CB (UniProt Q9UBF8)
PLK1 = PLK1 (UniProt P53350)
PRKAA1 = PRKAA1 (UniProt Q13131)
PRKCA = PRKCA (UniProt P17252)
PTK2 = PTK2 (UniProt Q05397)
PTK2B = PTK2B (UniProt Q14289)
RAF1 = RAF1 (UniProt P04049)
[1] = target: RAF1_S257L (clone: RAF1_mut) (UniProt P04049)
RET = RET (UniProt P07949)
[2] = target: RET_M918T (clone: RET_mut) (UniProt P07949)
RIOK1 = RIOK1 (UniProt Q9BRS2)
RIPK1 = RIPK1 (UniProt Q13546)
RIPK2 = RIPK2 (UniProt O43353)

Compound | number of time points (NTRK3) | number of time points (PAK4) | number of time points (PBK) | number of time points (PDGFRB) | number of time points (PDK1) | number of time points (PDPK1) | number of time points (PIK4CA) | number of time points (PIK4CB) | number of time points (PLK1) | number of time points (PRKAA1) | number of time points (PRKCA) | number of time points (PTK2) | number of time points (PTK2B) | number of time points (RAF1) | number of time points [1] | number of time points (RET) | number of time points [2] | number of time points (RIOK1) | number of time points (RIPK1) | number of time points (RIPK2)
CC(C)(O)c1cc2nc(-c3cnc(N)nc3)nc(N3CCOCC3)c2s1 (2.5 µM) | 2 | 0 | 0 | 0 | 0 | 4 | 2 | 2 | 3 | 1 | 0 | 2 | 0 | 3 | 2 | 0 | 2 | 0 | 3 | 3
C[C@H](Nc1ccc2c(c1)OCCn1cc(N3C(=O)OC[C@H]3C(F)F)nc1-2)C(N)=O (10 µM) | 0 | 0 | 0 | 0 | 0 | 0 | 0 | 0 | 0 | 0 | 0 | 0 | 0 | 0 | 0 | 0 | 0 | 0 | 0 | 0
Cc1c(Br)c(Br)c2c3c1nc(N1CCNCC1)n3CCC2 [SEL120-34A (monohydrochloride)] (2.5 µM) | 0 | 0 | 0 | 0 | 0 | 0 | 0 | 0 | 0 | 0 | 0 | 0 | 0 | 0 | 0 | 0 | 0 | 0 | 0 | 0
CC(C)=C/C=C1\O[C@@H]2CC(C)=CC(=O)[C@@H]2[C@]1(C)O [Bisabolangelone] (10 µM) | 0 | 0 | 0 | 0 | 0 | 0 | 0 | 0 | 0 | 0 | 0 | 0 | 0 | 0 | 0 | 0 | 0 | 0 | 0 | 0
CC(C)(C)S(=O)(=O)c1ccc2nccc(Nc3n[nH]c4ccc(F)cc34)c2c1 (10 µM) | 0 | 0 | 0 | 0 | 0 | 0 | 0 | 0 | 0 | 0 | 0 | 0 | 0 | 0 | 0 | 0 | 0 | 0 | 0 | 0
CN(C)C(=O)c1cc2cnc(Nc3ccc(NC(=O)C4(C(=O)Nc5ccc(F)cc5)CC4)cc3)nc2n1C1CCCC1 (2 µM) | 0 | 0 | 0 | 0 | 0 | 0 | 0 | 0 | 0 | 0 | 0 | 0 | 0 | 0 | 1 | 0 | 0 | 0 | 0 | 0
CNC(=O)c1ccc(-c2cnc3ncc(Cc4ccc5ncccc5c4)n3n2)cc1F [Capmatinib] (10 µM) | 0 | 0 | 0 | 0 | 0 | 0 | 0 | 0 | 0 | 0 | 0 | 0 | 0 | 0 | 0 | 0 | 0 | 0 | 0 | 0
CCC(=O)N1CC[C@H](Nc2ncnc3c2CN(c2cnc(OC)c(C(F)(F)F)c2)CC3)C1 [Leniolisib] (10 µM) | 0 | 0 | 0 | 0 | 0 | 0 | 0 | 0 | 0 | 0 | 0 | 0 | 0 | 0 | 0 | 0 | 0 | 0 | 0 | 0
C1=N/C2=N/c3ccc(OCCN4CCCC4)c(c3)COC/C=C/COCc3cccc(c3)C(=C1)N2 [Pacritinib] (2.5 µM) | 0 | 0 | 0 | 0 | 0 | 0 | 0 | 0 | 0 | 0 | 0 | 1 | 0 | 0 | 0 | 0 | 0 | 0 | 0 | 0
Nc1n[nH]c(N)c1N=Nc1ccc(O)cc1 (10 µM) | 0 | 0 | 0 | 0 | 0 | 0 | 0 | 0 | 0 | 0 | 0 | 0 | 0 | 0 | 0 | 0 | 0 | 0 | 0 | 0
Cc1nc(NC(=O)N2CCC[C@H]2C(N)=O)sc1-c1csc(C(C)(C)C)n1 (10 µM) | 0 | 0 | 0 | 0 | 0 | 0 | 0 | 0 | 0 | 0 | 0 | 0 | 0 | 0 | 0 | 0 | 0 | 0 | 0 | 0
C[C@@H]1CC[C@]2(C(=O)O)CC[C@]3(C)C(=CC[C@@H]4[C@@]5(C)CC[C@H](O)[C@@](C)(CO)[C@@H]5CC[C@]43C)[C@@H]2[C@]1(C)O [Rotundic acid] (10 µM) | 0 | 0 | 0 | 0 | 0 | 0 | 0 | 0 | 0 | 0 | 0 | 0 | 0 | 0 | 0 | 0 | 0 | 0 | 0 | 0
CCN1C(C)(C)CC(Oc2ccc(C(=O)Nc3ccc(NC(=O)Nc4cc(C(C)(C)C)on4)cc3)nc2)CC1(C)C (10 µM) | 0 | 0 | 0 | 0 | 0 | 0 | 0 | 0 | 0 | 0 | 0 | 0 | 0 | 0 | 0 | 0 | 0 | 0 | 0 | 0
Cn1cc(-c2ccc3nnc(Sc4ccc5nn(C)cc5c4)n3n2)cn1 [c-Met inhibitor 1] (10 µM) | 0 | 0 | 0 | 0 | 0 | 0 | 0 | 0 | 0 | 0 | 0 | 0 | 0 | 0 | 0 | 0 | 0 | 0 | 0 | 0
Cn1cc(-c2cn3nccc3c(-c3cnn([C@]4(CC#N)C[C@@H](C#N)C4)c3)n2)cn1 (10 µM) | 0 | 0 | 0 | 0 | 0 | 0 | 0 | 0 | 0 | 0 | 0 | 0 | 0 | 0 | 0 | 0 | 0 | 0 | 0 | 0
CC(C)(C)NS(=O)(=O)c1cncc(-c2cc(F)c3nc(N)nn3c2)c1 (10 µM) | 0 | 0 | 0 | 0 | 0 | 0 | 0 | 0 | 0 | 0 | 0 | 0 | 0 | 0 | 0 | 0 | 0 | 0 | 0 | 0
Cn1sc(=O)n(Cc2ccccc2)c1=O (10 µM) | 0 | 0 | 0 | 0 | 0 | 0 | 0 | 0 | 0 | 0 | 0 | 0 | 0 | 0 | 0 | 0 | 0 | 0 | 0 | 0
CC[C@H](C)[C@H](NC(=O)[C@H](CCCCN)NC(=O)[C@H](CC(C)C)NC(=O)[C@@H]1CCCN1C(=O)[C@H](CCC(=O)O)NC(=O)[C@H](Cc1ccc(O)cc1)NC(=O)[C@@H](NC(=O)[C@H](CO)NC(=O)CNC(=O)[C@H](CO)NC(=O)[C@H](CCCN=C(N)N)NC(=O)[C@H](CCCCN)NC(=O)[C@@H](NC(=O)[C@@H](N)CCCN=C(N)N)[C@@H](C)O)C(C)C)C(=O)O [Malantide] (10 µM) | 0 | 0 | 0 | 0 | 0 | 0 | 0 | 0 | 0 | 0 | 0 | 0 | 0 | 0 | 0 | 0 | 0 | 0 | 0 | 0
O=C(N=c1sccn1Cc1ccccc1)c1c[nH]c2ncccc12 (10 µM) | 0 | 0 | 0 | 0 | 0 | 0 | 0 | 0 | 0 | 0 | 0 | 0 | 0 | 0 | 0 | 0 | 0 | 0 | 0 | 0
O=C1c2c(O)cc(O)cc2O[C@H](c2cc(O)c(O)c(O)c2)[C@H]1O [Dihydromyricetin] (10 µM) | 0 | 0 | 0 | 0 | 0 | 0 | 0 | 0 | 0 | 0 | 0 | 0 | 0 | 0 | 0 | 0 | 0 | 0 | 0 | 0
O=c1cc(N2CCOCC2)oc2c1ccc1ccccc12 (2 µM) | 0 | 0 | 0 | 0 | 0 | 0 | 0 | 0 | 0 | 0 | 0 | 0 | 0 | 0 | 0 | 0 | 0 | 0 | 0 | 0
COc1ccc(C2CC(c3ccc(Cl)cc3)=NN2c2nc(-c3ccncc3)cs2)cc1 (stereo not given) [mTOR inhibitor-8] (10 µM) | 0 | 0 | 0 | 0 | 0 | 0 | 0 | 0 | 0 | 0 | 0 | 0 | 0 | 0 | 0 | 0 | 0 | 0 | 0 | 0
O=C1c2cccc(O)c2C(=O)c2c(O)cccc21 [Danthron] (10 µM) | 0 | 0 | 0 | 0 | 0 | 0 | 0 | 0 | 0 | 0 | 0 | 0 | 0 | 0 | 0 | 0 | 0 | 0 | 0 | 0
OCCC#Cc1nc(-c2ccc(F)cc2)c(-c2ccncc2)n1CCCc1ccccc1 (2.5 µM) | 0 | 0 | 0 | 0 | 0 | 0 | 0 | 0 | 0 | 0 | 0 | 0 | 0 | 0 | 0 | 0 | 0 | 0 | 0 | 0

One compound at a time, as listed above. Values in the order: number of time points (NTRK3) | number of time points (PAK4) | number of time points (PBK) | number of time points (PDGFRB) | number of time points (PDK1) | number of time points (PDPK1) | number of time points (PIK4CA) | number of time points (PIK4CB) | number of time points (PLK1) | number of time points (PRKAA1) | number of time points (PRKCA) | number of time points (PTK2) | number of time points (PTK2B) | number of time points (RAF1) | number of time points [1] | number of time points (RET) | number of time points [2] | number of time points (RIOK1) | number of time points (RIPK1) | number of time points (RIPK2)
O=C1c2cccc(O)c2C(=O)c2c(O)cccc21 [Danthron] (10 µM) as listed: 0 | 0 | 0 | 0 | 0 | 0 | 0 | 0 | 0 | 0 | 0 | 0 | 0 | 0 | 0 | 0 | 0 | 0 | 0 | 0
O=C1c2c(O)cc(O)cc2O[C@H](c2cc(O)c(O)c(O)c2)[C@H]1O [Dihydromyricetin] (10 µM) as listed: 0 | 0 | 0 | 0 | 0 | 0 | 0 | 0 | 0 | 0 | 0 | 0 | 0 | 0 | 0 | 0 | 0 | 0 | 0 | 0
